According to article doi:10.1101/2021.04.24.441265:
The exact form of at least one protein or probe is not confirmed. At least one result comes from cells or an extract, where the contact may be indirect.

The chains behind the UniProt entries cited, without tags or fusion partners. Where a name states a change or a piece, a line headed by the entry shows the natural chain unless it says otherwise.
UniProt P28033: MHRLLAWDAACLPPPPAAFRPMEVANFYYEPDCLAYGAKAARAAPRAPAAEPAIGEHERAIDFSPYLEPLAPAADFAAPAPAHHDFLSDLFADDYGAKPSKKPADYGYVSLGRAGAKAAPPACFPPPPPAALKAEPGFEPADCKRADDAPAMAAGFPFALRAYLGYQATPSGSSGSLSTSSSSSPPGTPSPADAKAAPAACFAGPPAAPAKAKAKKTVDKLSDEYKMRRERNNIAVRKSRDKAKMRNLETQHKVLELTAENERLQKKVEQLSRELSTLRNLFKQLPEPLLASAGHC

Key:
Assay in all cases: EMSA supershift
[1] = biological target: C/EBPδ (RAW264.7 nuclear extract) (mouse (RAW264.7 macrophages)) (UniProt Q00322); details: LPS-stimulated extract, present to a certain extent; protein in an extract
[2] = biological target: C/EBPβ (RAW264.7 nuclear extract) (mouse (RAW264.7 macrophages)) (UniProt P28033); details: LPS-stimulated extract; protein in an extract
[3] = biological target: C/EBPβ (BMDM nuclear extract) (mouse (primary BMDM)) (UniProt P28033); details: LPS-stimulated extract; protein in an extract
[4] = biological target: C/EBPδ (BMDM nuclear extract) (mouse (primary BMDM)) (UniProt Q00322); details: LPS-stimulated extract, minor extent; protein in an extract

Measured: binding result

TCAGGTACTTCATCTTACGTCACCTAGT / TCAGACTAGGTGACGTAAGATGAAGTAC [half-CRE•C/EBP_Il36A EMSA probe, unmethylated]
binds: all assays above
